Test [1] addresses Endogenous ARNT of mouse kidney (UUO-challenged C57BL/6 mice) (mouse (endogenous in kidney)) (UniProt P53762). Briefly: native gel or EMSA; endogenous ARNT pull-down from total kidney lysates of UUO mice given LB100, FK506, GPI1046 or combinations; Blue Native PAGE, immunoblot with ARNT antibody. Background: A gel shift assay detects complexes by their altered migration in electrophoresis.

The chains behind the UniProt entries cited, without tags or fusion partners. Where a name states a change or a piece, a line headed by the entry shows the natural chain unless it says otherwise. A line that says so, or that is headed by a name, gives the form on record, which may keep a tag or linker.
UniProt P53762: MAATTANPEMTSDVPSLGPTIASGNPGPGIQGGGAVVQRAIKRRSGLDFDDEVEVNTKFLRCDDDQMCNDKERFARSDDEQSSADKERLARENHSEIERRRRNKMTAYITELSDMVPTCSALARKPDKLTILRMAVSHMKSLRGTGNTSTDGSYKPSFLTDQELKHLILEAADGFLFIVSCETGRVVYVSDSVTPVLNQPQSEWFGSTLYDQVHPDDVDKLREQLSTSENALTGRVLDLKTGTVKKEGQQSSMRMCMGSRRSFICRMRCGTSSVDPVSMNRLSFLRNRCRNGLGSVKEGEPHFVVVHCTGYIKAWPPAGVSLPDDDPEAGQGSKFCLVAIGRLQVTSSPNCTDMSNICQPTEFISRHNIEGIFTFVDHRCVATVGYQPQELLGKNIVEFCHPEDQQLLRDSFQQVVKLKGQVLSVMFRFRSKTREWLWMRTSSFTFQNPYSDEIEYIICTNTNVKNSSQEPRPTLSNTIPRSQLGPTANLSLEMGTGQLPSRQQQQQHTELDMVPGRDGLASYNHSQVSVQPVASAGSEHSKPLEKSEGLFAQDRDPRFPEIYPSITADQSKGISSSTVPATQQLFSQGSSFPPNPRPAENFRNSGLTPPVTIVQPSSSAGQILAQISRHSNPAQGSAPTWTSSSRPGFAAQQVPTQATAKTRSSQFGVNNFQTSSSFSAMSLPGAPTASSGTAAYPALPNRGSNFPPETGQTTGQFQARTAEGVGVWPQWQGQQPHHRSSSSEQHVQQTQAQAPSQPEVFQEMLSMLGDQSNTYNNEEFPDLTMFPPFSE
Ser77/Asp-mutant ARNT, myc-tagged and EGFP-tagged copies co-expressed (P53762, form named): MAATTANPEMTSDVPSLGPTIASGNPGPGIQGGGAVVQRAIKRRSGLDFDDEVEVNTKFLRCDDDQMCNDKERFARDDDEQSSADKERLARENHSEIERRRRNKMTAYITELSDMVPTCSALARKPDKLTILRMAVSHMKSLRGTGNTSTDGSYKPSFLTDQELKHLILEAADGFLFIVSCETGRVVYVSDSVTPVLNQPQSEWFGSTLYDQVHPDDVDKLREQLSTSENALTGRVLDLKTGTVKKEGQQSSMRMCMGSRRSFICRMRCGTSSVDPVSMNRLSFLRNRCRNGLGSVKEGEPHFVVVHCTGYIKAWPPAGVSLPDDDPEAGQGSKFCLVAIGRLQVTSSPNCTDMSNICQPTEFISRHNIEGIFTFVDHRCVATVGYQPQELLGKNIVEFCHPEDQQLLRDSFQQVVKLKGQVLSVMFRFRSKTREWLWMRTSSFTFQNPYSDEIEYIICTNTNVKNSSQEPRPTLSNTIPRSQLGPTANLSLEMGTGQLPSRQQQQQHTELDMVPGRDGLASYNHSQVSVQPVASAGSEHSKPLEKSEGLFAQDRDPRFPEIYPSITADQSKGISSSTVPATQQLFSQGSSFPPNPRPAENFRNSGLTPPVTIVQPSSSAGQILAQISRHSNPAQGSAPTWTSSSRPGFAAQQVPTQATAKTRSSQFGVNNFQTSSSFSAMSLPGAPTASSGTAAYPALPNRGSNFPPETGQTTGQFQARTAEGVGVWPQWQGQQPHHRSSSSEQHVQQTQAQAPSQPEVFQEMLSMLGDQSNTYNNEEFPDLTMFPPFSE

The target is the same in test [2]. As to the kind of experiment: condition: only vehicle-treated mice, without LB100; native MS; liquid native MALDI mass spectrometry of endogenous ARNT pulled down from total kidney lysates of vehicle-treated UUO mice; eluted in 0.3% TFA, mixed with ammonium acetate buffer (100 mM, pH 9), glycerol.
The target of test [3] is Ser77/Asp-mutant ARNT, myc-tagged and EGFP-tagged copies co-expressed (mouse) (UniProt P53762). As to the kind of experiment: co-IP; HEK293 cells co-transfected with myc-tagged and EGFP-tagged ARNT; immunoprecipitation with myc or EGFP antibodies, immunoblot; cells treated 4 h with DMSO, LB100 (5 µM), okadaic acid (50 nM) or tautomycetin (200 nM). In general terms: Immunoblotting shows a protein as a band on a membrane.

The target is the same in test [4]. As to the kind of experiment: proximity ligation; HEK293 cells co-transfected with EGFP- and myc-tagged constructs, 5 µM LB100 for 4 h, fixed in methanol; EGFP and myc-tag antibodies, Duolink In Situ Red kit.

Drawing on PMC8674365, this text covers binding for 2 substances.

These are yes or no findings as the source states them, for the method shown. For some of these results: In cells and extracts the contact can be indirect. Some entries that bind do so weakly or less than the wild type.

Take “Endogenous ARNT of mouse kidney (UUO-challenged C57BL/6 mice) (from UniProt P53762 1-791)”: the binding result in test [1] is reported as “binds”; in test [2] it was “no binding”.

As for “Ser77/Asp-mutant ARNT, myc-tagged and EGFP-tagged copies co-expressed (from UniProt P53762 1-791)”, the binding entry in test [3] and in test [4] was “no binding” in each case.
